Results reported in PubChem BioAssay AID1347076 (National Center for Advancing Translational Sciences (NCATS), 2019).
Among all 400,000 compounds or so, about 13,000 (3.2%) were called active. The shares of active, inactive and inconclusive entries below differ from those in the screen. Calls come from the whole dose curve; as a rule, active = well fitted cell-killing curve with a large enough effect; inconclusive = small, poorly fitted or top-dose-only effect, or effect the other way; inactive = flat fitted curve, though single readings scatter. Potencies of inconclusive entries are doubtful fits and often do not repeat.

Assay: qHTS assay for MDR1-selective chemotherapeutics: Primary screen using the drug-selected MDR subline cells KB-V1; note: nearly all actives have a fitted effect of over 60% in size
Details: KB-V1 MDR cells viability, CellTiter-Glo, 72 h; activity change, negative = cytotoxicity: at 46.1 µM (top of the series)
Method in brief: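 Luminescent ATP read-out (CellTiter-Glo, 10 min) measures survival of drug-selected KB-V1 MDR cells after 72 h, 37 degrees C compound exposure. Medium: phenol-red-free DMEM, 10% FBS. Values from fitted concentration-response curves.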
% is set by controls: 0 for no effect and ±100 for the full control effect; potency is the fitted concentration of half-maximal effect.

Compound	Potency	activity change, negative = cytotoxicity
Cc1ccccc1NC(=S)N(Cc1cccnc1)Cc1ccccc1Cl	inconclusive: 8.2 µM [cytotoxic, partial curve, poor fit]	
COc1ccccc1CN1C(=NC(=O)CCC2CCCC2)SC2CS(=O)(=O)CC21 (stereo not given)	inconclusive: 2.06 µM [cytotoxic, partial curve]	
Cc1ccc(C2=NN=C(NC(=O)CSc3nnc4c5ccccc5n(C)c4n3)SC2)cc1	inconclusive: 18.4 µM [cytotoxic, partial curve]	
COc1cccc(-c2nnc(NC(=O)c3ccc(S(=O)(=O)N4CC(C)OC(C)C4)cc3)o2)c1 (stereo not given)	inconclusive: 8.2 µM [cytotoxic, partial curve]	
COc1ccc(CNC(=O)c2ccc(CS(=O)(=O)c3ccc(OC)cc3)o2)cc1	inconclusive: 23.1 µM [cytotoxic, partial curve]	
Oc1ccccc1/C=N/Nc1ncc(Br)cn1	inconclusive: 1.84 µM [cytotoxic, full curve]	
Cc1ccc(N2CCN(C(C(=O)Nc3c(C)cccc3C)c3cc4ccccc4o3)CC2)cc1 (stereo not given)	inconclusive: 5.8 µM [cytotoxic, partial curve]	
O=C(O)CC(SCC(=O)Nc1ccc(Cl)c(S(=O)(=O)N2CCOCC2)c1)C(=O)O (stereo not given)		inactive: 0.366%
O=C(c1cc(S(=O)(=O)N2CCOCC2)ccc1Cl)N1CCC(Cc2ccccc2)CC1	inconclusive: 9.2 µM [cytotoxic, partial curve]	
COc1ccc(N2CCN(c3oc(-c4ccccc4C)nc3S(=O)(=O)c3ccccc3)CC2)cc1		inactive: -20.7%
c1ccc(-c2ccc(OCCCNC3CCCC3)cc2)cc1		inactive: 0%
O=C(CSc1nnc(-c2ccccc2NC(=O)c2ccccc2)o1)OC1CCCCC1	inconclusive: 18.4 µM [rising, partial curve, poor fit]	
CCCCN(CCCC)S(=O)(=O)c1ccc(C(=O)Nc2sc3c(c2C(N)=O)CCN(CC)C3)cc1		inactive: 3.6%
COCCNC(=O)c1ccc(N2CCC3(CC2)OCCO3)c([N+](=O)[O-])c1	inconclusive: 29.1 µM [cytotoxic, single point]	
CCOc1ccccc1Nc1nc2ccccc2n1C(C)C		inactive: -7.69%
Cc1ccc(NC(=O)CN(C)Cc2nc3c(Br)cc(Br)cc3c(=O)[nH]2)cc1	inconclusive: 18.4 µM [cytotoxic, partial curve]	
COC(=O)c1nc(N)sc1-c1ccc(Cl)c(Cl)c1	inconclusive: 18.4 µM [cytotoxic, single point]	
COc1ccc(/C=C2\SC(N3CCc4ccccc4C3)=NC2=O)cc1OC	active: 11.6 µM	
CC(C)CCNC(=O)c1ccc(Cn2c(=S)[nH]c3ccccc3c2=O)cc1		inactive: 0.375%
Cc1cc(Nc2ccccc2Cl)c2ccccc2n1	inconclusive: 18.4 µM [cytotoxic, single point]	
CC(C)CC(N)c1csc(NC(=O)Nc2ccccc2Cc2ccccc2)n1 (stereo not given)	inconclusive: 29.1 µM [cytotoxic, single point]	
Cc1cccc(N2CCN(C(=O)CCNC(=O)Cn3ccc4ccccc4c3=O)CC2)c1C	active: 20.6 µM	
Cc1c(NS(=O)(=O)c2ccc3nc(COc4ccccc4Cl)[nH]c3c2)c(=O)n(-c2ccccc2)n1C	inconclusive: 18.4 µM [rising, single point]	
CC(C)C1C(=O)N(Cc2cn(Cc3ccco3)nn2)CCS(=O)(=O)N1Cc1ccc(-c2cccc(N(C)C)c2)cc1 (stereo not given)	inconclusive: 29.1 µM [cytotoxic, single point]	

Compound	Potency	activity change, negative = cytotoxicity
O=C(CN1C(=O)NC2(CCCCCC2)C1=O)N1CCC(Cc2ccccc2)CC1	active: 18.4 µM	
CCOc1ccccc1CNC(=O)CCCn1nc(C)c2sc3ccccc3c2c1=O		inactive: -3.83%
CC(=O)c1c(C)[nH]c(C(=O)CSc2ncnc3sc(-c4ccccc4)cc23)c1C	active: 7.31 µM	
COc1ccc(-c2cc3nc(C)cc(NCCO)n3n2)cc1	inconclusive: 9.2 µM [cytotoxic, partial curve]	
Cc1cccc(CN2CCN(c3ccccn3)CC2)c1	inconclusive: 20.6 µM [cytotoxic, partial curve, poor fit]	
Cc1nc2c([nH]1)c(=O)n(C)c(=O)n2Cc1ccco1	inconclusive: 18.4 µM [rising, single point]	
CC1CC(C)CN(C(=O)CCCn2c(=S)[nH]c3ccccc3c2=O)C1 (stereo not given)		inactive: -0.369%
COc1cc(OC)cc(C(=O)NCCCCCCNC(=O)c2cc(OC)cc(OC)c2)c1	active: 18.4 µM	
Cc1ccc(Sc2ccc(CO)cc2[N+](=O)[O-])cc1		inactive: 5.13%
Cc1cccc(C)c1NC(=O)N1CCC(C(N)=O)(N2CCCCC2)CC1	inconclusive: 23.1 µM [rising, single point]	
O=C(COc1ccc(C(=O)c2ccc(F)cc2)cc1)Nc1cccc(S(=O)(=O)N2CCOCC2)c1	active: 11.6 µM	
S=c1[nH]nc([C@@H]2C[C@H]2c2ccccc2)n1-c1ccccc1Cl		inactive: -18.7%
COc1ccc(CNc2oc(COc3ccccc3)nc2C#N)cc1	active: 18.4 µM	
C[C@]12c3[nH]c4cc(-c5ccco5)ccc4c3CCN1C(=O)[C@@H](CC(=O)NCCCn1ccnc1)C[C@@H]2C(=O)N1CCOCC1		inactive: 8.3%
Cc1ccc(-c2cc(C(=O)NN3CCOCC3)c3cc(Br)ccc3n2)o1	inconclusive: 9.2 µM [cytotoxic, partial curve]	
CCOc1ccc(Br)cc1S(=O)(=O)Nc1cccc(S(=O)(=O)N2CCOCC2)c1		inactive: 15.8%
Cc1cc2nc(-c3nnnn3Cc3ccccc3)c(=O)[nH]c2cc1C		inactive: 8.82%
c1ccc(-c2cc3c(N4CCCC4)ncnc3s2)cc1	inconclusive: 10.3 µM [cytotoxic, partial curve]	
COc1cc(C2C3=C(COC3=O)Oc3cc4c(cc32)OCO4)ccc1O (stereo not given)	active: 4.61 µM	
COC(C(=O)Nc1ccc(S(=O)(=O)Nc2cccc3ccccc23)cc1)c1ccccc1 (stereo not given)	active: 18.4 µM	
Cc1nc2ccccc2nc1-c1csc(-c2ccccc2)n1	inconclusive: 16.4 µM [rising, single point]	
CCOC(=O)c1ccc(NC(=O)c2c(NCc3cccc(OC)c3)sc3c2CCC3)cc1		inactive: -12.7%
Cc1ccccc1Nc1cc(C(=O)NC2CCC(C)CC2)c2ccccc2n1 (stereo not given)	inconclusive: 6.51 µM [cytotoxic, partial curve, poor fit]	
COc1cccc(NC(=O)C2CC(=O)N(Cc3ccco3)C2)c1 (stereo not given)	inconclusive: 25.9 µM [cytotoxic, partial curve, poor fit]	

Full records, quoted from the list:
COc1ccc(-c2cc3nc(C)cc(NCCO)n3n2)cc1 in the list: Potency: inconclusive: 9.2 µM [cytotoxic, partial curve]
CC1CC(C)CN(C(=O)CCCn2c(=S)[nH]c3ccccc3c2=O)C1 (stereo not given) in the list: activity change, negative = cytotoxicity: inactive: -0.369%

Later entries.

Compound	Potency	activity change, negative = cytotoxicity
CCOc1ccc(OCCNC(=O)c2cc(C3CC3)nc3c2cnn3C(C)C)cc1	inconclusive: 8.2 µM [cytotoxic, partial curve]	
COc1ccc(NC(=O)/C(Cl)=C(/Cl)S(=O)Cc2ccccc2Cl)cn1 (stereo not given)	inconclusive: 29.1 µM [cytotoxic, single point]	
Fc1ccc(NC(=S)SCc2ccc3c(c2)OCO3)cc1F		inactive: -27.6%
CC1Cc2ccccc2N1C(=O)CSc1nnc(Cc2ccccc2)n1CCc1ccccc1 (stereo not given)	active: 3.26 µM	
NC(=O)c1nc[nH]c1C(=O)Nc1cccc(NC(=O)c2cccc(C(F)(F)F)c2)c1	inconclusive: 29.1 µM [rising, single point]	
Cc1cccc(CCN(CC(=O)NCc2ccc(F)cc2)C(=O)c2csnn2)c1	inconclusive: 2.31 µM [cytotoxic, full curve]	
CS(=O)(=O)NCCNc1ccc(C(F)(F)F)cc1[N+](=O)[O-]	inconclusive: 7.31 µM [rising, partial curve]	
CO/N=C\CC(=O)Nc1ccc(Cl)cc1Cl	active: 5.8 µM	
COc1cccc(-n2c(-c3ccco3)nc3c(cnn3-c3ccccc3C)c2=O)c1		inactive: -4.7%
O=C(NNc1ccccc1Br)C(O)(c1cccc(C(F)(F)F)c1)c1cccc(C(F)(F)F)c1	active: 18.4 µM	
O=C(O)CN1C(=O)SC(Nc2ccc(C(=O)O)cc2)C1=O (stereo not given)	inconclusive: 7.31 µM [rising, partial curve, poor fit]	
O=C(Oc1ccc(N(Cc2cccs2)C2=NS(=O)(=O)c3ccccc32)cc1)c1ccccc1Cl	inconclusive: 25.9 µM [cytotoxic, single point]	
FC(F)(F)c1cccc(NC(=S)NCCc2ccccn2)c1	inconclusive: 25.9 µM [cytotoxic, partial curve, poor fit]	
CCc1cc2c(N3CCN(c4nnc(CC)s4)CC3)ncnc2s1	active: 3.66 µM	
CCC(=O)NC(C)c1cc(Cl)c2cccnc2c1O (stereo not given)		inactive: 6.22%
COC(=O)C(NC(=O)c1ccc(OC)cc1)(Nc1ncc(S(=O)(=O)c2ccc([N+](=O)[O-])cc2)s1)C(F)(F)F (stereo not given)	inconclusive: 29.1 µM [cytotoxic, single point]	
CN(NS(C)(=O)=O)c1ncc(C(F)(F)F)cc1Cl	inconclusive: 0.184 µM [rising, full curve]	
O=C(Nc1ccc2c(c1)OCO2)c1ccc(=O)[nH]n1	inconclusive: 20.6 µM [cytotoxic, single point]	
CC(C)(CC(=O)O)CC(=O)NNc1ncccc1C#N	inconclusive: 20.6 µM [rising, single point]	
CCOc1ccc2[nH]c(C(=O)N/N=C/c3ccc(OC)cc3)cc2c1	inconclusive: 0.731 µM [cytotoxic, full curve, poor fit]	
O=C(COC(=O)C1CCC1)Nc1cc(S(=O)(=O)N2CCOCC2)ccc1Cl		inactive: 2.44%
CCCCCCN1C[C@H](O)[C@@H](n2cc(-c3ccc(F)cc3)nn2)C[C@@H]1c1ccc(C)cc1	inconclusive: 29.1 µM [rising, single point]	
